{"source": "PubChem BioAssay AID1053208 (Peter MacCallum Cancer Centre, 2014)", "aim": "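Find knock-downs that sensitise mouse osteosarcoma cells to doxorubicin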 (primary screen)", "cells": "mouse osteosarcoma cells, early-passage culture from an engineered mouse model of fibroblastic bone tumour", "reagents": "siRNA pool against mouse genes, 40 nM", "duration": "about 120 h (48 h before drug, then 72 h with drug)", "treatment": "doxorubicin 100 nM for 72 h, roughly 30-40% inhibitory dose", "detection": "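Viability read as ATP luminescence after 72 h of 100 nM doxorubicin or none, duplicate wells averaged, scaled to non-targeting siRNA, then expressed as robust z-scores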", "reading the numbers": "viability z-score with doxorubicin: higher = more viable cells under doxorubicin; viability z-score without drug: higher = more viable cells with knock-down alone", "rule for the call": "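a pool counts as active when its viability z-score with doxorubicin is -2 or below and its z-score without drug lies between -2 and 2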", "note": "Shown is an unselected part of about 17,000 deposited reagents. 788 of them (4.7%) were called active. 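Calls rest on z-score classes alone; an extra cut-off of viability at most 70% of control was not applied to them.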 Unmarked entries are inactive. Further read-outs or replicates are left out here."}
{"gene knocked down": "Sgcb (sarcoglycan, beta (dystrophin-associated glycoprotein))", "combined z-score class": "no change with or without drug", "viability z-score with doxorubicin": -1.35, "viability z-score without drug": -1.01}
{"gene knocked down": "Nelfcd (negative elongation factor complex member C/D, Th1l)", "combined z-score class": "high cell count with doxorubicin only", "viability z-score with doxorubicin": 3.04, "viability z-score without drug": 1.18}
{"gene knocked down": "Vmn1r14 (vomeronasal 1 receptor 14)", "combined z-score class": "no change with or without drug", "viability z-score with doxorubicin": -1.8, "viability z-score without drug": -1.52}
{"gene knocked down": "Stab2 (stabilin 2)", "combined z-score class": "no change with or without drug", "viability z-score with doxorubicin": 1.46, "viability z-score without drug": 0.51}
{"gene knocked down": "Sfi1 (Sfi1 homolog, spindle assembly associated (yeast))", "combined z-score class": "low cell count with doxorubicin only (active)", "viability z-score with doxorubicin": -2.36, "viability z-score without drug": 0.17}
{"gene knocked down": "Gm10413 (predicted gene 10413)", "combined z-score class": "no change with or without drug", "viability z-score with doxorubicin": 1.8, "viability z-score without drug": 1.69}
{"gene knocked down": "Prkd3 (protein kinase D3)", "combined z-score class": "no change with or without drug", "viability z-score with doxorubicin": 0.56, "viability z-score without drug": 0}
{"gene knocked down": "Clk3 (CDC-like kinase 3)", "combined z-score class": "no change with or without drug", "viability z-score with doxorubicin": -0.9, "viability z-score without drug": 1.01}
{"gene knocked down": "Thap7 (THAP domain containing 7)", "combined z-score class": "no change with or without drug", "viability z-score with doxorubicin": 0.9, "viability z-score without drug": 0.51}
{"gene knocked down": "Lrrn3 (leucine rich repeat protein 3, neuronal)", "combined z-score class": "no change with or without drug", "viability z-score with doxorubicin": -1.01, "viability z-score without drug": -0.84}
{"gene knocked down": "Actr6 (ARP6 actin-related protein 6)", "combined z-score class": "no change with or without drug", "viability z-score with doxorubicin": 1.12, "viability z-score without drug": -0.51}
{"gene knocked down": "Noct (nocturnin)", "combined z-score class": "no change with or without drug", "viability z-score with doxorubicin": -0.56, "viability z-score without drug": 0.17}
{"gene knocked down": "Pou4f2 (POU domain, class 4, transcription factor 2)", "combined z-score class": "no change with or without drug", "viability z-score with doxorubicin": 1.35, "viability z-score without drug": 0.17}
{"gene knocked down": "Rnf40 (ring finger protein 40)", "combined z-score class": "no change with or without drug", "viability z-score with doxorubicin": 0, "viability z-score without drug": -0.51}
{"gene knocked down": "Ube2e2 (ubiquitin-conjugating enzyme E2E 2)", "combined z-score class": "no change with or without drug", "viability z-score with doxorubicin": 1.46, "viability z-score without drug": 0.17}
{"gene knocked down": "Wnt8a (WNT family member 8A)", "combined z-score class": "no change with or without drug", "viability z-score with doxorubicin": 0.67, "viability z-score without drug": -0.51}
{"gene knocked down": "Pgap2 (post-GPI attachment to proteins 2)", "combined z-score class": "no change with or without drug", "viability z-score with doxorubicin": -1.46, "viability z-score without drug": -0.17}
{"gene knocked down": "Pemt (phosphatidylethanolamine N-methyltransferase)", "combined z-score class": "low cell count with doxorubicin only (active)", "viability z-score with doxorubicin": -2.59, "viability z-score without drug": -1.18}
{"gene knocked down": "Cbfa2t3 (CBFA2/RUNX1 translocation partner 3)", "combined z-score class": "high cell count without drug only", "viability z-score with doxorubicin": -0.22, "viability z-score without drug": 2.19}
